Drawing on article PMC8308721 (Pharmaceutics, 2021), this text covers step yield for 2 substances.

The nature of the data set: general procedure: solution-phase peptide synthesis.

On to “Methyl glycylglycyl-L-phenylalanyl-L-leucinate”, for which, under “late stage modification step”, the step yield is reported as 90.6%.

On to “Methyl (tert-butoxycarbonyl)glycylglycyl-L-phenylalanyl-L-leucinate”, for which, for the setting “coupling step”, the step yield is reported as 81.1%.
